Here are results for 68 compounds from PubChem BioAssay AID662 (National Center for Advancing Translational Sciences (NCATS), 2007).

This is one part of the list. Further columns of the screen follow, without active or inactive calls. Compounds called inactive in the main read-out are mostly missing here. The note in brackets gives the kind of curve behind each potency; many fits are weak.

As a reminder, the AC50 is the concentration giving half of the maximal activity seen.

The nature of this assay: Cell signaling CRE-BLA (Fsk stim). As to conditions: CHO CRE-bla reporter (cAMP response element driving beta-lactamase), forskolin EC10, beta-lactamase ratio; measured here: 460 nm blue channel. The essentials:
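CRE-bla CHO cells stimulated with EC10 NKH 477 (water-soluble forskolin) and compound titrations, 3 h at 37C; beta-lactamase read with CCF4 after 2 h at room temperature. Activity from 460/530 nm emission ratio, AC50 values for positive or negative modulation.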
Turning to `CCCc1ccc(Oc2c(-c3ccc(O)c(C)c3O)n[nH]c2C)cc1`, the AC50 was 25.1 µM [falling, single point].

For `CCCn1c(=O)c2c(nc(Br)n2CCC)n(C)c1=O`, the AC50 is 10 µM [rising, partial curve].

Consider `O=C(CC1Nc2ccccc2NC1=O)Nc1ccccc1` (stereo not drawn), for which the AC50 was 10 µM [rising, partial curve].

In the case of `CC(C)N(Cc1ccccc1)C(=O)COC(=O)c1ccc2c(c1)OCCO2`, the AC50 was 5.01 µM [falling, partial curve].

Turning to `COc1ccc(CC(=O)Nc2cccc(-c3nnc(-c4ccc(C)cc4)o3)c2)cc1OC`, the AC50 was 5.01 µM [falling, single point].

Take `CCN(Cc1ccccc1)C(c1ccccn1)c1nnnn1C(C)(C)CC` (stereo not drawn): the AC50 is 0.00316 µM [falling, full curve, poor fit].

Consider `Cc1ccc(Oc2cc(C)nc(-c3ccccc3O)n2)cc1`, for which the AC50 is 12.6 µM [rising, single point].

`COc1cc2c(cc1OC)-c1nnc(C)n1C1(CCCC1)C2`: the AC50 is 10 µM [rising, partial curve].

Consider `Cc1cccc(-c2c3c(=O)n(C)c(=O)n(C)c3cn2C(C)C)c1`, for which the AC50 was 10 µM [rising, partial curve].

For `O=C(O)CCC(=O)N1CCN(c2ccccn2)CC1`, the AC50 is 0.01 µM [falling, full curve, poor fit].

Turning to `CCN1c2ccccc2NC2N=C(OC)C(c3ccccc3)C21` (stereo not drawn), the AC50 was 10 µM [rising, partial curve].

On to `COc1ccc(C2=NOC(C(=O)NCc3ccc(F)cc3)C2)cc1OC` (stereo not drawn), for which the AC50 is 12.6 µM [rising, partial curve].

Take `Cc1ccccc1OCC1Cn2c(nc3c2c(=O)[nH]c(=O)n3C)O1` (stereo not drawn): the AC50 is 20 µM [rising, single point].

`COc1ccccc1Nc1nnc(SCC(=O)N2CCCC2=O)s1`: the AC50 was 5.01 µM [falling, single point].

For the compound `COc1ccc(OC)c(NC(=O)c2ccc(S(=O)(=O)N3CCN(C)CC3)cc2)c1`, the AC50 is 12.6 µM [rising, single point].

For the compound `CN1C(=O)NC(NC(=O)c2cccs2)(C(F)(F)F)C1=O` (stereo not drawn), the AC50 was 0.398 µM [falling, partial curve].

On to `COc1cccc(Cn2c(=O)c(-c3cccc(C#N)c3)nc3cnc(OC)nc32)c1`, for which the AC50 is 3.16 µM [rising, full curve, poor fit].

Consider `O=C(Nc1ccccc1)c1ccc2nc(-c3ccco3)c(-c3ccco3)nc2c1`, for which the AC50 is 12.6 µM [rising, single point].

With `CCOCCCN(C(=O)Nc1ccc(CC)cc1)C1CCN(C(C)=O)CC1`, the AC50 is 25.1 µM [rising, single point].

For the compound `CCCCCn1c(SCCC(C)C)nc2c1c(=O)[nH]c(=O)n2C`, the AC50 is 15.8 µM [rising, partial curve].

Turning to `O=C(CSc1nc2ccccc2[nH]1)NCCN1CCCCC1`, the AC50 is 0.1 µM [rising, partial curve, poor fit].

`CCN(CCCNc1ncnc2nc[nH]c12)c1cccc(C)c1`: the AC50 is 5.01 µM [rising, full curve].

With `[O-]/[N+](=C\c1ccncc1)c1ccccc1`, the AC50 was 5.01 µM [falling, partial curve].

With `CCCCOC(=O)C1=C(C)Nc2ncnn2C1c1cc(OC)ccc1OC` (stereo not drawn), the AC50 is 0.316 µM [falling, partial curve].

On to `O=C(Nc1ccn(-c2ccccc2)n1)c1ccc(S(=O)(=O)N2CCCCCC2)cc1`, for which the AC50 was 0.398 µM [falling, full curve].

Take `Cc1ccc(S(=O)(=O)Nc2cc(C(=O)N3CCOCC3)ccc2N2CCCCC2)cc1`: the AC50 was 6.31 µM [rising, partial curve].

`CCOCCCNC(=O)c1c[nH]c2cc(C)ccc2c1=O`: the AC50 was 3.98 µM [falling, single point].

In the case of `CCOc1ccccc1NC(=O)c1ccc(F)c(S(=O)(=O)N2CCC3(CC2)OCCO3)c1`, the AC50 is 25.1 µM [rising, single point].

As for `CCN(CC)S(=O)(=O)c1ccc2nc(CSc3nnnn3-c3ccc(O)cc3)[nH]c2c1`, the AC50 was 0.00398 µM [falling, full curve, poor fit].

With `Cc1c(-n2cc(C(=O)O)c(=O)c3cc(F)c(N4CCCC4)c(F)c32)c(=O)n(-c2ccccc2)n1C`, the AC50 is 10 µM [rising, partial curve].

`CC(C(=O)OCn1nnc2ccccc2c1=O)N1C(=O)c2ccccc2C1=O` (stereo not drawn): the AC50 was 0.794 µM [falling, single point].

As for `CCN(CC)c1nc(Nc2ccccc2)nc(Oc2ccc(=O)n(C)n2)n1`, the AC50 is 2.51 µM [rising, partial curve].

For `COC(=O)c1cc(NC2c3ncccc3C(=O)N2Cc2ccccc2)cc(C(=O)OC)c1` (stereo not drawn), the AC50 was 2.51 µM [rising, partial curve, poor fit].

On to `O=C(NC(NC1CCS(=O)(=O)C1)C(=O)c1ccccc1)c1ccc(Cl)cc1` (stereo not drawn), for which the AC50 was 0.1 µM [falling, full curve, poor fit].

With `CC(=O)c1cc(C)ccc1OC(=O)c1cccc2nc(C)oc12`, the AC50 is 1 µM [rising, full curve].

Take `Cc1ccc(-c2nc(-c3nccc4ccccc34)oc2-c2ccccc2)cc1`: the AC50 is 0.0251 µM [falling, single point].

For the compound `CCOc1ccc(Nc2nc(C)cc(C)c2C#N)cc1`, the AC50 is 25.1 µM [rising, single point].

Regarding `COc1ccc(CNc2cc(-c3cccc(C#N)c3)ncn2)c(OC)c1`, the AC50 was 7.94 µM [rising, partial curve].

For `CCc1cc(C=NC2CCCCC2)c(O)s1`, the AC50 was 0.398 µM [falling, partial curve].

Take `COC(=O)c1nc(-c2ccccc2)oc1N(C)C`: the AC50 was 10 µM [rising, single point].

For `CN1CCN(c2ncc3ncc(=O)n(-c4ccccc4)c3n2)CC1`, the concentration at half-maximal activity (AC50) was 12.6 µM [rising, partial curve, poor fit].

`N[C@@H](Cc1ccccc1)c1nnc(SCc2ccccc2F)o1`: the AC50 is 5.01 µM [falling, single point].

Turning to `CCOC(=O)c1sc(=S)n2c1[nH]c(=O)c1ccc(C(=O)OC)cc12`, the half-maximal activity concentration (AC50) is 0.316 µM [rising, full curve, poor fit].

Consider `Cc1ccc(C)c(N2CCN(C(=O)CCS(=O)(=O)c3cccc4nonc34)CC2)c1`, for which the AC50 is 0.00398 µM [falling, full curve, poor fit].

Regarding `CN(C)c1ncnc2ccc(-c3ccccc3C#N)cc12`, the AC50 was 2.51 µM [rising, full curve].

Turning to `Cc1sc2nc(SCC(=O)NCCO)n(C)c(=O)c2c1C`, the AC50 was 12.6 µM [rising, partial curve].

For the compound `O=C(Nn1cnnc1)c1ccccc1-c1ccccc1`, the AC50 was 0.00398 µM [falling, partial curve, poor fit].

In the case of `Cc1cc(C)c(C(=O)COC(=O)Cn2cnnn2)cc1C`, the AC50 was 0.01 µM [falling, full curve, poor fit].

Turning to `COc1ccc(OC)c(C(C)NC(=O)c2ccco2)c1` (stereo not drawn), the AC50 was 0.316 µM [rising, partial curve].

Turning to `Cc1ccc(-c2[nH]nc3c2C(c2cccnc2)C(C#N)=C(N)O3)cc1` (stereo not drawn), the AC50 is 10 µM [rising, partial curve].

As to `N=C(N)S/C=C\C(=O)O`, the AC50 is 7.94 µM [rising, partial curve, poor fit].

For `COC(=O)[C@@]1(Cc2ccc(F)cc2)[C@H]2c3cc(C(=O)N(C)C)n(Cc4cc(C)n(C)n4)c3C[C@H]2CN1C(=O)c1ccccc1`, the AC50 was 1.26 µM [rising, partial curve].

As for `Cc1cc(NC(=O)c2cnn3c(C(F)F)cc(C4CC4)nc23)no1`, the AC50 was 2 µM [rising, single point].

For the compound `C=CCNc1oc(-c2ccc(OC)cc2)nc1C#N`, the concentration at half-maximal activity (AC50) was 15.8 µM [rising, single point].

In the case of `C=CCNC(=O)C1CCCN(S(C)(=O)=O)C1` (stereo not drawn), the AC50 is 25.1 µM [falling, single point].

Regarding `O=C(CC(SCc1ccco1)c1ccc(O)cc1)c1cccs1` (stereo not drawn), the AC50 is 0.126 µM [falling, full curve].

As to `O=C(O)C1C2C=CC(C2)C1C(=O)Nc1ccc(C(=O)N2CCCCC2)cc1` (stereo not drawn), the AC50 was 0.00398 µM [falling, full curve, poor fit].

In the case of `COc1ccc(-c2nn3cnnc3s2)cc1OC`, the AC50 was 7.94 µM [rising, partial curve].

For the compound `Cc1c(C(=O)Nc2cnccn2)oc2ccccc12`, the AC50 was 10 µM [rising, single point].

Take `COC(=O)C1=C(C)NC(C)=C(C(=O)OC)C1C(=O)OC1CCCCC1=O` (stereo not drawn): the AC50 was 3.98 µM [falling, partial curve].

With `Brc1ccc(CSc2nnc(Cc3c[nH]c4ccccc34)o2)cc1`, the AC50 was 12.6 µM [falling, partial curve].

With `O=C(NCc1ccco1)c1cnn2c(C(F)(F)F)cc(-c3ccccc3)nc12`, the AC50 is 10 µM [rising, partial curve].

As to `CCN(CC)CCOc1ncnc2c1oc1ccccc12`, the AC50 was 0.126 µM [falling, full curve, poor fit].

Take `CCN(c1ccc(OC)cc1)S(=O)(=O)c1ccc2c(c1)CCN2C(=O)CCC(=O)O`: the AC50 is 0.01 µM [falling, full curve, poor fit].

As for `CN(C)c1ccc(/C=C2/C(=O)Nc3ccccc32)cc1`, the AC50 was 20 µM [falling, partial curve].

With `O=C(Nc1ccccc1)N1CCCC2(CCN(C(=O)c3cc(C(F)(F)F)cc(C(F)(F)F)c3)CC2)C1`, the AC50 was 10 µM [falling, single point].

As to `Cn1c(=O)[nH]c(=O)c2c1nc(N1CCCC1)n2CCCSc1nc2ccccc2o1`, the AC50 was 5.01 µM [rising, partial curve].

As for `COc1ccc(C/C(O)=C(\C#N)c2nc3ccccc3[nH]2)cc1OC`, the AC50 is 3.16 µM [rising, full curve].
